The other results are listed elsewhere or left out. These are raw signals, not scaled to a control.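 In the initial screen, polymyxin B was used at a concentration that permeabilizes Salmonella's outer membrane but not its inner membrane. Maximum growth was set by DMSO wells with or without polymyxin B. Since plates varied, data were ranked per plate, and compounds giving the lowest OD600 advanced as hits.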
Tested on: Salmonella enterica serovar Typhimurium SL1344
Assay: bacterial growth OD600 after 18 h with compound and polymyxin B; higher = more bacterial growth (less inhibition)
Details: 50 µM, Mueller-Hinton broth

Compound	bacterial growth OD600 (polymyxin B 1 µg/mL)	bacterial growth OD600 (polymyxin B 0.75 µg/mL)
CN(Cc1ncc[nH]1)C1CCCN(CCc2ccccc2)C1 (stereo not given)	0.856	
COc1ccccc1CN1CCCC(CNC(=O)c2cccs2)C1 (stereo not given)	1.05	
COc1cccc(CN2CCN(Cc3ccccc3F)C(CCO)C2)c1OC (stereo not given)	0.932	
COCc1c(C(=O)NCC2(N3CCCCC3)CCCCC2)cnn1-c1nccc(-c2cccs2)n1		0.752
CCN1CCN(C2(C(=O)N(C)Cc3ccc(C)o3)Cc3ccccc3C2)CC1		0.776
COc1ccc(-c2cnnc(N3CC[C@@H]4CCCC[C@H]4C3)n2)cc1		0.192
Cc1ccc(CNC(=O)C2(N(C)C)Cc3ccccc3C2)s1	1.04	
O=C(CCC1CCN(C(=O)C2=CCCCC2)CC1)Nc1ccc2c(c1)OCCO2	0.904	
COC(=O)CC(NC1CCN(c2cccc(NC(=O)CCCc3ccccc3)c2)CC1)C(=O)OC (stereo not given)		0.703
O=C(NCC1CCCCO1)c1cc(COc2ccc3c(c2)OCO3)[nH]n1 (stereo not given)	0.878	
CC1CN(Cc2cccc3ncccc23)Cc2ccccc2O1 (stereo not given)		0.901
CN(Cc1ccccc1)Cc1cc(C(=O)NCc2c[nH]nc2-c2ccccc2)no1	1.12	
COc1ccccc1-c1ccnc(-n2ncc(C(=O)NCCc3cccnc3)c2C2CC2)n1		0.884
Cc1cccc(CN2CCCC(O)(CN3CCNC(=O)C3(C)C)C2=O)c1 (stereo not given)	0.917	
COc1cc(OC)c(OC)cc1CN1CCOc2ccc(C(C)(O)COc3ccccc3)cc2C1 (stereo not given)		0.559
O=C(CN1Cc2ccccc2OC(c2ccsc2)C1)N1CCCCC1c1nc2cc(F)ccc2[nH]1 (stereo not given)		0.556
Cc1ccccc1N1CCN(C2CCCN(C(=O)CCC3CCCC3)C2)CC1 (stereo not given)	0.01	
Cc1cccc(CC(C)NC(=O)c2coc(COc3cccc(F)c3)n2)n1 (stereo not given)	0.953	
CCC1CN(Cc2sccc2C)Cc2cc(OC)ccc2O1 (stereo not given)		0.066
O=C(CCC1CCCN(C23CC4CC(CC(C4)C2)C3)C1)NC1CC1 (stereo not given)		0.812

Some of the entries above in a different format:
COc1ccccc1-c1ccnc(-n2ncc(C(=O)NCCc3cccnc3)c2C2CC2)n1
  bacterial growth OD600 (polymyxin B 0.75 µg/mL): 0.884
Cc1cccc(CN2CCCC(O)(CN3CCNC(=O)C3(C)C)C2=O)c1 (stereo not given)
  bacterial growth OD600 (polymyxin B 1 µg/mL): 0.917

Reference: the supplement of paper PMC12889115
